Microarray screen: hit calls

Oligonucleotides screened, 5′ to 3′:
PreQ1: PreQ1 riboswitch RNA pseudoknot, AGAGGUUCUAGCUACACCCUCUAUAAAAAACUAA. From B. subtilis. About 24,000 compounds screened, about 170 hits.
SAM-II: SAM-II riboswitch RNA pseudoknot, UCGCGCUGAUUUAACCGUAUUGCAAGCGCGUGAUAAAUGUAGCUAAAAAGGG. About 21,000 compounds screened, about 200 hits.
TPP: TPP riboswitch RNA three-way junction, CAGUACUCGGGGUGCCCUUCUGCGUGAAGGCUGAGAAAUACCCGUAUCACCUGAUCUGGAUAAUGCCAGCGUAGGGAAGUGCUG. About 24,000 compounds screened, about 160 hits.

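The test is a small-molecule microarray: each compound is printed twice on a reactive slide, and binding shows as fluorescence of the labelled oligonucleotide after washing. The data file lists only calls. An earlier report of the laboratory on the PreQ1, TPP and SAM-II riboswitches (doi:10.1038/s41467-019-09493-3) used 1 µM RNA for 2 h and required a mean Z-score above 3 (spot signal-to-noise against the whole library), a score well above that on a control array, and duplicate spots agreeing (coefficient of variation under 100); it then also set aside compounds that hit other targets, which this list keeps. The cut-offs behind this list may differ. A missing hit is not proof of no binding, and a hit is not a measured affinity.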 “active” means called a hit, “inactive” means screened and not called a hit. The compounds are a random part of those screened. A target missing from an entry has no call listed here.

N=C(Nc1nc(-c2ccccn2)cc2ccccc12)c1ccccn1 was scored PreQ1: inactive; SAM-II: inactive; TPP: inactive.
O=C1NCCNC12CCN(S(=O)(=O)c1cc(Cl)c(Cl)s1)CC2 was scored PreQ1: inactive; SAM-II: inactive; TPP: inactive.
Nc1nc(CSCCO)nc(Nc2ccccc2)n1 was scored PreQ1: inactive; SAM-II: inactive; TPP: inactive.
O=S(=O)(c1ccc(-c2csc(Nc3ccc(Cl)cc3)n2)cc1)N1CCOCC1 was scored PreQ1: inactive; SAM-II: inactive; TPP: inactive.
COc1ccc(NCc2nc(=O)n(Cc3ccccc3Cl)[nH]2)cc1 was scored PreQ1: inactive; SAM-II: inactive; TPP: inactive.
CCN(CC)CCNCc1ccc(-c2ccc(F)cc2)o1 was scored PreQ1: inactive; TPP: inactive.
CC(O)c1ccc(NC(=O)c2nn3c(c2Cl)N[C@@H](c2cccs2)C[C@H]3C(F)(F)F)cc1 (stereo not given in full) was scored PreQ1: inactive; SAM-II: inactive; TPP: inactive.
Nc1c(C(=O)Nc2ccc(F)cc2F)sc2ncccc12 was scored PreQ1: inactive; SAM-II: inactive; TPP: inactive.
Cc1cc(Nc2cc(N3CCN(C)CC3)nc(C=Cc3ccccc3)n2)n[nH]1 was scored PreQ1: inactive; SAM-II: inactive; TPP: inactive.
CN1C[C@H]2c3ccccc3Oc3ccc(Cl)cc3[C@@H]2C1 was scored PreQ1: inactive; SAM-II: inactive; TPP: inactive.
O=S(=O)(c1ccccc1)c1nc(-c2ccccc2)oc1NCCCn1ccnc1 was scored PreQ1: inactive; TPP: inactive.
Nc1nc(CCC(=O)N2CC(c3cccnc3)C2)cs1 was scored PreQ1: inactive; SAM-II: inactive; TPP: inactive.
Cc1cccc(-c2nc3c4ccccc4nc(NCCN4CCOCC4)n3n2)c1 was scored PreQ1: inactive; TPP: inactive.
Clc1ccccc1C(c1ccccc1)(c1ccccc1)n1ccnc1 was scored PreQ1: inactive; SAM-II: inactive; TPP: inactive.
Nc1c(-c2nc(-c3ccc(Br)cc3)cs2)nnn1Cc1ccccc1 was scored PreQ1: inactive; SAM-II: inactive; TPP: inactive.
C=CCn1ncc(-c2cc(-c3ccsc3)nc(N)c2C#N)c1C was scored PreQ1: inactive; SAM-II: inactive; TPP: inactive.
Cc1ccc(-c2c(C(F)(F)F)nn3c(NCc4ccccn4)cc(C)nc23)cc1 was scored PreQ1: inactive; TPP: inactive.
Nc1nnc(SCc2ccccc2Cl)s1 was scored PreQ1: inactive; SAM-II: inactive; TPP: inactive.
CCC(CC)[C@H](NC(C)=O)[C@@H]1[C@H](O)[C@@H](C(=O)O)C[C@@H]1N=C(N)N was scored PreQ1: inactive; SAM-II: inactive; TPP: inactive.
Cc1ccc(C)c(NC2CCCCC2NS(=O)(=O)c2ccccc2)c1 (stereo not given) was scored PreQ1: inactive; TPP: inactive.
COc1ccc(Br)cc1CNC(C)(C)CO was scored PreQ1: inactive; SAM-II: inactive; TPP: inactive.
O=C(O)[C@H]1C[C@@H](O)CCN1Cc1ccc2cccc(Cl)c2n1 was scored PreQ1: inactive; SAM-II: inactive; TPP: inactive.
COc1cc(C)ccc1OCCN1C[C@H](C2CC2)[C@@H](N)C1 was scored PreQ1: inactive; SAM-II: inactive; TPP: inactive.
Cc1ccc(NC(=O)c2nnn(Cc3ccc(Cl)cc3)c2N)cc1 was scored PreQ1: inactive; SAM-II: inactive; TPP: inactive.
O=S1(=O)CC(O)C(NCCc2ccccc2)C1 (stereo not given) was scored PreQ1: inactive; SAM-II: inactive; TPP: inactive.
CCOC(=O)N1CCC(N2C(=O)c3ccccc3C2Nc2cc(C(=O)OC)cc(C(=O)OC)c2)CC1 (stereo not given) was scored PreQ1: inactive; SAM-II: inactive; TPP: inactive.
COc1ccccc1CNC(=O)c1nn(-c2ccccc2)nc1CO was scored PreQ1: inactive; TPP: inactive.
Cc1cc(Nc2ccc(N3CCN(S(C)(=O)=O)CC3)cc2)n2nc(-c3ccco3)nc2n1 was scored PreQ1: inactive; SAM-II: inactive; TPP: inactive.
NC1CCN(Cc2ccc(F)cc2)CC1 was scored PreQ1: inactive; SAM-II: inactive; TPP: inactive.
Cc1ccc(C2C(C#N)=C(N)OC3=C2S(=O)(=O)N(Cc2ccc(Cl)cc2)c2ccccc23)cc1 (stereo not given) was scored PreQ1: inactive; SAM-II: inactive; TPP: inactive.
Cn1c(=O)[nH]c(=O)c2c1nc(NCCCO)n2CCCc1ccccc1 was scored PreQ1: inactive; SAM-II: inactive; TPP: inactive.
Cc1cc(C)n(C(=N)NC(=O)c2ccccc2)n1 was scored PreQ1: inactive; SAM-II: inactive; TPP: inactive.
Cc1cc(C)c2oc(-c3ccc(C)c(N)c3)nc2c1 was scored PreQ1: inactive; SAM-II: inactive; TPP: inactive.
COc1ccc(-c2noc(-c3nnn(-c4ccccc4OC)c3N)n2)cc1 was scored PreQ1: inactive; TPP: inactive.
Cc1cc(Nc2ccc(N3CCN(C(=O)c4ccco4)CC3)cc2)n2nc(-c3ccccc3)nc2n1 was scored PreQ1: inactive; SAM-II: inactive; TPP: inactive.
CC(C)NCC(O)COc1cccc2ccccc12 (stereo not given) was scored PreQ1: inactive; SAM-II: inactive; TPP: inactive.
COc1c(C)cnc(CN(C)c2nc(N(C)C)nc3c2CCNC3)c1C was scored PreQ1: inactive; SAM-II: inactive; TPP: inactive.
Cc1ccc(NC(=O)c2cnn(C(=O)c3ccccc3)c2N)c(C)c1 was scored PreQ1: inactive; SAM-II: inactive; TPP: inactive.
Clc1ccc(Nc2nc3ccccc3c3nncn23)cc1 was scored PreQ1: inactive; SAM-II: inactive; TPP: inactive.

Once more, the final 5:

{"compound": "Cc1cc(Nc2ccc(N3CCN(C(=O)c4ccco4)CC3)cc2)n2nc(-c3ccccc3)nc2n1", "PreQ1": "inactive", "SAM-II": "inactive", "TPP": "inactive"}
{"compound": "CC(C)NCC(O)COc1cccc2ccccc12", "stereo": "stereo not given", "PreQ1": "inactive", "SAM-II": "inactive", "TPP": "inactive"}
{"compound": "COc1c(C)cnc(CN(C)c2nc(N(C)C)nc3c2CCNC3)c1C", "PreQ1": "inactive", "SAM-II": "inactive", "TPP": "inactive"}
{"compound": "Cc1ccc(NC(=O)c2cnn(C(=O)c3ccccc3)c2N)c(C)c1", "PreQ1": "inactive", "SAM-II": "inactive", "TPP": "inactive"}
{"compound": "Clc1ccc(Nc2nc3ccccc3c3nncn23)cc1", "PreQ1": "inactive", "SAM-II": "inactive", "TPP": "inactive"}

Data from the ROBIN nucleic acid binder screens, doi:10.1002/anie.202211358.